Laboratory results published in patent US20040038212A1.
These are yes or no findings as the source states them, for the method shown. Some entries that bind do so weakly or less than the wild type.

By UniProt entry, the sequences of proteins in these tests, tags left out. Where a name states a change or a piece, a line headed by the entry shows the natural chain unless it says otherwise.
UniProt Q9UQF2: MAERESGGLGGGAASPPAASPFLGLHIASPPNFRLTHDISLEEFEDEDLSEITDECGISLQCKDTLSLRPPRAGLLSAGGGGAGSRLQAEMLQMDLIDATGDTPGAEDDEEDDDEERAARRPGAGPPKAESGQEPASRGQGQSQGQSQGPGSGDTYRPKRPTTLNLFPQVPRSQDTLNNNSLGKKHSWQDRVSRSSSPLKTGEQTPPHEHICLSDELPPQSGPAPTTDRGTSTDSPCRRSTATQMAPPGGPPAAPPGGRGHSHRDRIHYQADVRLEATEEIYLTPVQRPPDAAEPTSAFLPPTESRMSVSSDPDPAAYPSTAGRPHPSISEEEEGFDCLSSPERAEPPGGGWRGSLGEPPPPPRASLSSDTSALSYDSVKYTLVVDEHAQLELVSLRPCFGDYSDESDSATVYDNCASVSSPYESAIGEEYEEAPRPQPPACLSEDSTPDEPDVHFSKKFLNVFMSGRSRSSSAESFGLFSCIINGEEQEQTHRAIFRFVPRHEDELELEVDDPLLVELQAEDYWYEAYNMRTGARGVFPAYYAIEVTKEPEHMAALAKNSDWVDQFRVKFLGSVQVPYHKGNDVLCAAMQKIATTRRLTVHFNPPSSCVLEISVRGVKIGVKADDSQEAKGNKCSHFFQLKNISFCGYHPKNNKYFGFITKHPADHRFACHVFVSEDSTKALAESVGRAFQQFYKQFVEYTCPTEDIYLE
UniProt P46100: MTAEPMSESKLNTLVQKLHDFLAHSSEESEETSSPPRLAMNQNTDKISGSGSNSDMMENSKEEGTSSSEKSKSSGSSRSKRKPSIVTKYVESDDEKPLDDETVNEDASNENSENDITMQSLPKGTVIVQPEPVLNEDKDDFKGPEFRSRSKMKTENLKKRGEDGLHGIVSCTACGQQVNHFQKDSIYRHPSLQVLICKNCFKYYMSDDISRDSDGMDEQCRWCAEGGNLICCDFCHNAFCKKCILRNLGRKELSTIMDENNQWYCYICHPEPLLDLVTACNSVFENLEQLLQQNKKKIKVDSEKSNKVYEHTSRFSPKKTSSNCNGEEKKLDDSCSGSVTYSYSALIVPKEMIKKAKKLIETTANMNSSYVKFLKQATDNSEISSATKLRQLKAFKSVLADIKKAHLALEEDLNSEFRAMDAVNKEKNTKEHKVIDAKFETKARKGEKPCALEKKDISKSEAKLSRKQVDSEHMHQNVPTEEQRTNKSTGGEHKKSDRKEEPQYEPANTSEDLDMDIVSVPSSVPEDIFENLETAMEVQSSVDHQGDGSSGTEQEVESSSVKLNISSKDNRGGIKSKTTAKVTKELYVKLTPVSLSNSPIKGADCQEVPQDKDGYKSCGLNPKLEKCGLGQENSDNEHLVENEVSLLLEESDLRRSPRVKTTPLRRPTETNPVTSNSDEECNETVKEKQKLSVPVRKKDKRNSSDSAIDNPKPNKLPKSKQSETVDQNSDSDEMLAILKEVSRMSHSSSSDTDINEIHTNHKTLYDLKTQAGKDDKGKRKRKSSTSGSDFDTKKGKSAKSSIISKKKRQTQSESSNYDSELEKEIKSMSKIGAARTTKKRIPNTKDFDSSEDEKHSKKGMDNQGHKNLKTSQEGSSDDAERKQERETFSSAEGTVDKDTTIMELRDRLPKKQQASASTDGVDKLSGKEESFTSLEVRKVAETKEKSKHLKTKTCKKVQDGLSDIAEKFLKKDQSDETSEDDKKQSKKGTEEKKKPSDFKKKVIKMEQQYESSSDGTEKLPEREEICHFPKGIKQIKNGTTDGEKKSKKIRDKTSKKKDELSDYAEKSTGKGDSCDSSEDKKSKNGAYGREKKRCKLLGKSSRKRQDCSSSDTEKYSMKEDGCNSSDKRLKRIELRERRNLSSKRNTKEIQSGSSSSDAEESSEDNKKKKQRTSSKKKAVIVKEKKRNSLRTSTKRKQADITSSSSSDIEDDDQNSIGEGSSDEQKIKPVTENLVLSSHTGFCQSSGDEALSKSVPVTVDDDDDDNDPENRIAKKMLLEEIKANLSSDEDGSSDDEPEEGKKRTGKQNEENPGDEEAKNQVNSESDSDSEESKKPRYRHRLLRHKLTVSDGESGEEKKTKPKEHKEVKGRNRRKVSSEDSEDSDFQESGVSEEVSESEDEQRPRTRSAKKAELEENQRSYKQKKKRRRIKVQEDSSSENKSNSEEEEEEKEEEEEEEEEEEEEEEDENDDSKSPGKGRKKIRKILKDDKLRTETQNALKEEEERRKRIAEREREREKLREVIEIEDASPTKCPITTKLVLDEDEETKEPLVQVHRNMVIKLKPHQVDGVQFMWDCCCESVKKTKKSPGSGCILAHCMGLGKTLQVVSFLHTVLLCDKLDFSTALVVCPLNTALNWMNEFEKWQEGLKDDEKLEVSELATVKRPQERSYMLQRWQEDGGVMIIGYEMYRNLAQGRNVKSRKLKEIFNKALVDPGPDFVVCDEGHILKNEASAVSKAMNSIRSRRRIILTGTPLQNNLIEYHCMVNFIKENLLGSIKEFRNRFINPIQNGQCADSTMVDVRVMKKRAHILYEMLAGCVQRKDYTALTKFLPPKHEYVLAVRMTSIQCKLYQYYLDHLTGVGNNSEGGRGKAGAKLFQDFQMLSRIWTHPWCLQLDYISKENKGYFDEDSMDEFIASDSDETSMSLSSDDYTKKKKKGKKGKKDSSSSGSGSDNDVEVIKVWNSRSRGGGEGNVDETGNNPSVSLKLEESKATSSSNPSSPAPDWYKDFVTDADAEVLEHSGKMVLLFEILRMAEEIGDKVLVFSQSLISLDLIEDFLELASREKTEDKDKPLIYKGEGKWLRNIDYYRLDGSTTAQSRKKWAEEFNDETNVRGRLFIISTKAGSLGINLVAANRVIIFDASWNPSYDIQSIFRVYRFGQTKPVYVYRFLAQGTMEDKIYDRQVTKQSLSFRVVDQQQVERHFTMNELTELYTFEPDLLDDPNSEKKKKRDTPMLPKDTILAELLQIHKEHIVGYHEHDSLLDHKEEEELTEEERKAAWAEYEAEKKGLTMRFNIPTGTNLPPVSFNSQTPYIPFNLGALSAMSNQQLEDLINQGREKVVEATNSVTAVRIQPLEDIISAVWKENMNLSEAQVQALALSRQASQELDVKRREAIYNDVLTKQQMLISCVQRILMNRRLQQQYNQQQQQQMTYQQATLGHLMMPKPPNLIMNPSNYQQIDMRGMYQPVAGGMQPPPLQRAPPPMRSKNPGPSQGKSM
UniProt Q13123: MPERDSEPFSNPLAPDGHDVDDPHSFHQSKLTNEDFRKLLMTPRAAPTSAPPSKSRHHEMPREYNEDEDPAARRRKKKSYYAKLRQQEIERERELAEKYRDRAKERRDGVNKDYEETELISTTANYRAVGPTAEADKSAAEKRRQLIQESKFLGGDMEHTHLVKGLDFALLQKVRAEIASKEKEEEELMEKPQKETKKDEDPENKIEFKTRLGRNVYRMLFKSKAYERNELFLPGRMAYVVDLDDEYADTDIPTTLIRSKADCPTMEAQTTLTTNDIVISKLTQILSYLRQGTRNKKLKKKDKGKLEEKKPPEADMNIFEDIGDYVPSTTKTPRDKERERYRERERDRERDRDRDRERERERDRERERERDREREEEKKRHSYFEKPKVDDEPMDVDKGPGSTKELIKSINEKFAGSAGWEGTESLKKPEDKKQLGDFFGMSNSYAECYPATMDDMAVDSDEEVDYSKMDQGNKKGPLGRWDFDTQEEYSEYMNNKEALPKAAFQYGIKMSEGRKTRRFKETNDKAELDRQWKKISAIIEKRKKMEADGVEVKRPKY
UniProt Q96EZ8: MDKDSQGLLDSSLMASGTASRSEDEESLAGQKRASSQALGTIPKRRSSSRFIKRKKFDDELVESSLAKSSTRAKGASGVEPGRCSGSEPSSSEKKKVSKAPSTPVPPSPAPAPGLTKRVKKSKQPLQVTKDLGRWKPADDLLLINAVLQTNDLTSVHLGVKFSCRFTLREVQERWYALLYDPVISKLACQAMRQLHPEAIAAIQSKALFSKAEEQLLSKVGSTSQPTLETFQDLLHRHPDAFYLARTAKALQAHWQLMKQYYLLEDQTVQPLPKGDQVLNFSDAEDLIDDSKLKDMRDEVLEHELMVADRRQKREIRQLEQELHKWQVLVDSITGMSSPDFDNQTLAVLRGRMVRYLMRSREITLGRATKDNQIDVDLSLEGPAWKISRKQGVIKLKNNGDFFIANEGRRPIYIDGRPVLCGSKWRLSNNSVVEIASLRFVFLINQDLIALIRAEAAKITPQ
UniProt O75820: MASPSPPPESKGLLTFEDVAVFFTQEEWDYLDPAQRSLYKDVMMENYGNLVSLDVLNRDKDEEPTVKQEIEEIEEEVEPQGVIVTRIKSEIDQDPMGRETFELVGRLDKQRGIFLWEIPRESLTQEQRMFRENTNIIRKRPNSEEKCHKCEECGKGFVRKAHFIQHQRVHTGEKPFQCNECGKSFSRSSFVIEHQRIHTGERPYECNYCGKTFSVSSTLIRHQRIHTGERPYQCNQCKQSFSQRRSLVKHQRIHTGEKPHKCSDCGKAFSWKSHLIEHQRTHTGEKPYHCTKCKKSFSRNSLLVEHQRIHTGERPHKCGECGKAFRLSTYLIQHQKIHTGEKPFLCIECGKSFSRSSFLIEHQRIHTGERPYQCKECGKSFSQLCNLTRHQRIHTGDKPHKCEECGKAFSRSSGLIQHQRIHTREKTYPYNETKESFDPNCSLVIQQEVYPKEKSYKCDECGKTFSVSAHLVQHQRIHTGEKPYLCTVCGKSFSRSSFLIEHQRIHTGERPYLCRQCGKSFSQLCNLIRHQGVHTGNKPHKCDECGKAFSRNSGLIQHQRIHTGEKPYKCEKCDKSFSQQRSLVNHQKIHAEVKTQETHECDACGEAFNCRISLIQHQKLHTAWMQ
UniProt P17844: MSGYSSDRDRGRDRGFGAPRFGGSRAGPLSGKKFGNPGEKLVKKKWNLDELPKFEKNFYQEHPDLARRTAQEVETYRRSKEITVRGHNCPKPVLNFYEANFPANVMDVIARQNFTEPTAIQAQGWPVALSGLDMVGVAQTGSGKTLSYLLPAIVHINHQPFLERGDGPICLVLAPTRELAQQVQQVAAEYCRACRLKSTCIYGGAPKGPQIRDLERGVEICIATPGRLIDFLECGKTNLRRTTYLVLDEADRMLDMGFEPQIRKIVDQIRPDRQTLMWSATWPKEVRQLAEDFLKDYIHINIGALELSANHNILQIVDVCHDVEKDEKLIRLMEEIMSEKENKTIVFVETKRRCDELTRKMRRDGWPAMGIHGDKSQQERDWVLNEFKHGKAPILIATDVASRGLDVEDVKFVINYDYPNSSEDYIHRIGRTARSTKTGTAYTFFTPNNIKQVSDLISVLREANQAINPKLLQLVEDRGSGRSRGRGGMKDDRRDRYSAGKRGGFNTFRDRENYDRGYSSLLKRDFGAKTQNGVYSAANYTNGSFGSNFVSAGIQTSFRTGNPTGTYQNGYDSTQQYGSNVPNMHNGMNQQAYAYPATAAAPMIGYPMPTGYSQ
UniProt O43707: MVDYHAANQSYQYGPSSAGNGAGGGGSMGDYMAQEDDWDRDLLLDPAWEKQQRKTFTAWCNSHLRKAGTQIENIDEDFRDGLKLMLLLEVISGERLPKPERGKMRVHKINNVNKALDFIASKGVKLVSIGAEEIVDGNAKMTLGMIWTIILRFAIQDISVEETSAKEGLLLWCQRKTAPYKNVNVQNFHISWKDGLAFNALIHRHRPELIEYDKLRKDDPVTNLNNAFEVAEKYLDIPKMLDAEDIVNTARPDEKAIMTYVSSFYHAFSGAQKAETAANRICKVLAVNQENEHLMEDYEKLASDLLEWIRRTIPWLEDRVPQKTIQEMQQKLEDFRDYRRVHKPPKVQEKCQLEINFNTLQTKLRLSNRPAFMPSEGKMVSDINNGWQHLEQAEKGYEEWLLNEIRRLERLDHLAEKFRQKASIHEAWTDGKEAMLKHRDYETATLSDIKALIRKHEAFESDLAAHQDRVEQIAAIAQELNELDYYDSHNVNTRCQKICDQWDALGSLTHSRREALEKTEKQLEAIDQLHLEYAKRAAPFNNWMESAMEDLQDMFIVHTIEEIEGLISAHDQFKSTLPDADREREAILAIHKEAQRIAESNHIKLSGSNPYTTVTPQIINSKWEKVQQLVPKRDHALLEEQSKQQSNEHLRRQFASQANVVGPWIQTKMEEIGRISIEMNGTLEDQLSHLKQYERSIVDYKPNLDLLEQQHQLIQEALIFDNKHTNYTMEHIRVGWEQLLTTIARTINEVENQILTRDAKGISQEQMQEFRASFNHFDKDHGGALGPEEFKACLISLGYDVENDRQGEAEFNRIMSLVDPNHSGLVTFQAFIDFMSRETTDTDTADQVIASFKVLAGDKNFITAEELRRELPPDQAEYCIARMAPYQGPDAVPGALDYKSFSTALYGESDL

T1: Gal4-DBD-delta (1-27) ALEX1, bait lacking the N-terminal transmembrane domain (amino acid numbers 1 to 27) (human) (UniProt Q9P291)
T1 sequence: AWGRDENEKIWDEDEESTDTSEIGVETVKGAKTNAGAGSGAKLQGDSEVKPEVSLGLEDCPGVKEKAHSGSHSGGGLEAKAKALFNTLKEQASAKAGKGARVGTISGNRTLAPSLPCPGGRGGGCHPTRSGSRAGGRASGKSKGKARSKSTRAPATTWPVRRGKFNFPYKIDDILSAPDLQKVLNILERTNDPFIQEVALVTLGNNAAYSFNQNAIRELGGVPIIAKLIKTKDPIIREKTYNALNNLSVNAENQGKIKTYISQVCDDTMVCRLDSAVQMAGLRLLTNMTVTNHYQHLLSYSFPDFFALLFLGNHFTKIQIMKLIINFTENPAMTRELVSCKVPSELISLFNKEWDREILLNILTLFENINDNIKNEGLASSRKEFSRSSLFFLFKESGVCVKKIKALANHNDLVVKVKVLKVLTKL


What follows are molecules tested against Gal4-DB fused to full-length ALEX1, bait in pODB-80 (human) (assay: yeast two-hybrid screen, full-length ALEX1 as bait).

binding	Molecule
binds	JIP-1 clone of amino acid numbers 160 to 711, prey from the human brain cDNA library (from UniProt Q9UQF2 160-711)
binds	JIP-1 clone of amino acid numbers 199 to 711, prey from the human brain cDNA library (from UniProt Q9UQF2 199-711)
binds	JIP-1 clone of amino acid numbers 258 to 711, the smallest JIP-1 clone (19A3) (from UniProt Q9UQF2 258-711)

These molecules were tested against Gal4-DB fused to full-length ALEX1, bait in pODB-80 (human) (assay: yeast two-hybrid, growth of yeast carrying pODB-80-ALEX1).

binding	Molecule
binds	JIP-1 fragment comprising amino acid numbers 262 to 589 (from UniProt Q9UQF2 262-589)
binds	JIP-1 fragment of amino acid numbers 374 to 711 (from UniProt Q9UQF2 374-711)

What follows are molecules tested against Gal4-DB fused to full-length ALEX1, bait in pODB-80 (human) (assay: yeast two-hybrid, growth on -Leu-Trp-His plate with 1 mM 3-AT).

binding	Molecule
binds	JIP-1 clone of amino acid numbers 258 to 711, the smallest JIP-1 clone (19A3) (from UniProt Q9UQF2 258-711)

What follows are molecules tested against T1, Gal4-DBD-delta (1-27) ALEX1, bait lacking the N-terminal transmembrane domain (amino acid numbers 1 to 27) (human) (assay: yeast two-hybrid screen with Gal4-DBD-delta (1-27) ALEX1 as bait; listed among those that passed all tests).

binding	Molecule
binds	ALEX1, prey clones from the human brain cDNA library in pACT2 (homodimer formation) (protein, not shown: large carriers) MGRTREAGCVAAGVVIGAGACYCVYRLAWGRDENEKIWDEDEESTDTSEIGVETVKGAKTNAGAGSGAKLQGDSEVKPEVSLGLEDCPGVKEKAHSGSHSGGGLEAKAKALFNTLKEQASAKAGKGARVGTISGNRTLAPSLPCPGGRGGGCHPTRSGSRAGGRASGKSKGKARSKSTRAPATTWPVRRGKFNFPYKIDDILSAPDLQKVLNILERTNDPFIQEVALVTLGNNAAYSFNQNAIRELGGVPIIAKLIKTKDPIIREKTYNALNNLSVNAENQGKIKTYISQVCDDTMVCRLDSAVQMAGLRLLTNMTVTNHYQHLLSYSFPDFFALLFLGNHFTKIQIMKLIINFTENPAMTRELVSCKVPSELISLFNKEWDREILLNILTLFENINDNIKNEGLASSRKEFSRSSLFFLFKESGVCVKKIKALANHNDLVVKVKVLKVLTKL
binds	SART-1, prey clones from the human brain cDNA library in pACT2 (protein, UniProt O43290 1-800, looked up, not shown: large carriers) MGSSKKHRGEKEAAGTTAAAGTGGATEQPPRHREHKKHKHRSGGSGGSGGERRKRSRERGGERGSGRRGAEAEARSSTHGRERSQAEPSERRVKREKRDDGYEAAASSKTSSGDASSLSIEETNKLRAKLGLKPLEVNAIKKEAGTKEEPVTADVINPMALRQREELREKLAAAKEKRLLNQKLGKIKTLGEDDPWLDDTAAWIERSRQLQKEKDLAEKRAKLLEEMDQEFGVSTLVEEEFGQRRQDLYSARDLQGLTVEHAIDSFREGETMILTLKDKGVLQEEEDVLVNVNLVDKERAEKNVELRKKKPDYLPYAEDESVDDLAQQKPRSILSKYDEELEGERPHSFRLEQGGTADGLRERELEEIRAKLRLQAQSLSTVGPRLASEYLTPEEMVTFKKTKRRVKKIRKKEKEVVVRADDLLPLGDQTQDGDFGSRLRGRGRRRVSEVEEEKEPVPQPLPSDDTRVENMDISDEEEGGAPPPGSPQVLEEDEAELELQKQLEKGRRLRQLQQLQQLRDSGEKVVEIVKKLESRQRGWEEDEDPERKGAIVFNATSEFCRTLGEIPTYGLAGNREEQEELMDFERDEERSANGGSESDGEENIGWSTVNLDEEKQQQDFSASSTTILDEEPIVNRGLAAALLLCQNKGLLETTVQKVARVKAPNKSLPSAVYCIEDKMAIDDKYSRREEYRGFTQDFKEKDGYKPDVKIEYVDETGRKLTPKEAFRQLSHRFHGKGSGKMKTERRMKKLDEEALLKKMSSSDTPLGTVALLQEKQKAQKTPYIVLSGSGKSMNANTITK
binds	KIAA1221, prey clones from the human brain cDNA library in pACT2 (protein, UniProt Q9H582 1-1327, looked up, not shown: large carriers) MRSFLQQDVNKTKSRLNVLNGLANNMDDLKINTDITGAKEELLDDNNFISDKESGVHKPKDCQTSFQKNNTLTLPEELSKDKSENALSGGQSSLFIHAGAPTVSSENFILPKGAAVNGPVSHSSLTKTSNMNKGSVSLTTGQPVDQPTTESCSTLKVAADLQLSTPQKASQHQVLFLLSDVAHAKNPTHSNKKLPTSASVGCDIQNSVGSNIKSDGTLINQVEVGEDGEDLLVKDDCVNTVTGISSGTDGFRSENDTNWDPQKEFIQFLMTNEETVDKAPPHSKIGLEKKRKRKMDVSKITRYTEDCFSDSNCVPNKSKMQEVDFLEQNEELQAVDSQKYALSKVKPESTDEDLESVDAFQHLIYNPDKCGEESSPVHTSTFLSNTLKKKCEESDSESPATFSTEEPSFYPCTKCNVNFREKKHLHRHMMYHLDGNSHFRHLNVPRPYACRECGRTFRDRNSLLKHMIIHQERRQKLMEEIRELKELQDEGRSARLQCPQCVFGTNCPKTFVQHAKTHEKDKRYYCCEECNFMAVTENELECHRGIAHGAVVKCPMVTSDIAQRKTQKKTFMKDSVVGSSKKSATYICKMCPFTTSAKSVLKKHTEYLHSSSCVDSFGSPLGLDKRKNDILEEPVDSDSTKTLTKQQSTTFPKNSALKQDVKRTFGSTSQSSSFSKIHKRPHRIQKARKSIAQSGVNMCNQNSSPHKNVTIKSSVDQKPKYFHQAAKEKSNAKANSHYLYRHKYENYRMIKKSGESYPVHFKKEEASSLNSLHLFSSSSNSHNNFISDPHKPDAKRPESFKDHRRVAVKRVIKESKKESSVGGEDLDSYPDFLHKMTVVVLQKLNSAEKKDSYETEDESSWDNVELGDYTTQAIEDETYSDINQEHVNLFPLFKSKVEGQEPGENATLSYDQNDGFYFEYYEDTGSNNFLHEIHDPQHLETADASLSKHSSVFHWTDLSLEKKSCPYCPATFETGVGLSNHVRGHLHRAGLSYEARHVVSPEQIATSDKMQHFKRTGTGTPVKRVRKAIEKSETTSEHTCQLCGGWFDTKIGLSNHVRGHLKRLGKTKWDAHKSPICVLNEMMQNEEKYEKILKALNSRRIIPRPFVAQKLASSDDFISQNVIPLEAYRNGLKTEALSVSASEEEGLNFLNEYDETKPELPSGKKNQSLTLIELLKNKRMGEERNSAISPQKIHNQTARKRFVQKCVLPLNEDSPLMYQPQKMDLTMHSALDCKQKKSRSRSGSKKKMLTLPHGADEVYILRCRFCGLVFRGPLSVQEDWIKHLQRHIVNANLPRTGAGMVEVTSLLKKPASITETSFSLLMAEAAS

Target: T1, Gal4-DBD-delta (1-27) ALEX1, bait lacking the N-terminal transmembrane domain (amino acid numbers 1 to 27) (human)
Assay: as above
Remark: another data set of the same source

binding	Molecule
binds	ATRX, prey clones from the human brain cDNA library in pACT2 (from UniProt P46100 1-2492)
binds	CSA2 (RED protein), prey clones from the human brain cDNA library in pACT2 (from UniProt Q13123 1-557)
binds	MSP58, prey clones from the human brain cDNA library in pACT2 (from UniProt Q96EZ8 1-462)
binds	ZNF189, prey clones from the human brain cDNA library in pACT2 (from UniProt O75820 1-626)
binds	p68 (RNA helicase/ATPase), prey clones from the human brain cDNA library in pACT2 (from UniProt P17844 1-614)
binds	α-Actinin4, prey clones from the human brain cDNA library in pACT2 (from UniProt O43707 1-911)
